For two substances, binding results are on record in publication PMC6435701.

Sequences of proteins named here, by UniProt entry; tags and fusion partners are left off.
UniProt Q8BGV8: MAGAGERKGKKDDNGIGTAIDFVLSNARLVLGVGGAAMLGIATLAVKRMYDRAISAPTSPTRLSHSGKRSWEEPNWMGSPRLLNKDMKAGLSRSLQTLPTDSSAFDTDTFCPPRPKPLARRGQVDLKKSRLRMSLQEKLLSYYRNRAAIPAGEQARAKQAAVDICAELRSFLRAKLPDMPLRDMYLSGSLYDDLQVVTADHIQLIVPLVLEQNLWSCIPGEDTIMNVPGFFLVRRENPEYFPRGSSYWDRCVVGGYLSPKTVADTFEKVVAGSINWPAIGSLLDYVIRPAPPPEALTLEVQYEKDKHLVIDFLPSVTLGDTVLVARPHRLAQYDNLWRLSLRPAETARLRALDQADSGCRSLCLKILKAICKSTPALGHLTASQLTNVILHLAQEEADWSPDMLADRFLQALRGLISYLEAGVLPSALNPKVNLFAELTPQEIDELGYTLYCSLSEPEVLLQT
UniProt Q8K1M6: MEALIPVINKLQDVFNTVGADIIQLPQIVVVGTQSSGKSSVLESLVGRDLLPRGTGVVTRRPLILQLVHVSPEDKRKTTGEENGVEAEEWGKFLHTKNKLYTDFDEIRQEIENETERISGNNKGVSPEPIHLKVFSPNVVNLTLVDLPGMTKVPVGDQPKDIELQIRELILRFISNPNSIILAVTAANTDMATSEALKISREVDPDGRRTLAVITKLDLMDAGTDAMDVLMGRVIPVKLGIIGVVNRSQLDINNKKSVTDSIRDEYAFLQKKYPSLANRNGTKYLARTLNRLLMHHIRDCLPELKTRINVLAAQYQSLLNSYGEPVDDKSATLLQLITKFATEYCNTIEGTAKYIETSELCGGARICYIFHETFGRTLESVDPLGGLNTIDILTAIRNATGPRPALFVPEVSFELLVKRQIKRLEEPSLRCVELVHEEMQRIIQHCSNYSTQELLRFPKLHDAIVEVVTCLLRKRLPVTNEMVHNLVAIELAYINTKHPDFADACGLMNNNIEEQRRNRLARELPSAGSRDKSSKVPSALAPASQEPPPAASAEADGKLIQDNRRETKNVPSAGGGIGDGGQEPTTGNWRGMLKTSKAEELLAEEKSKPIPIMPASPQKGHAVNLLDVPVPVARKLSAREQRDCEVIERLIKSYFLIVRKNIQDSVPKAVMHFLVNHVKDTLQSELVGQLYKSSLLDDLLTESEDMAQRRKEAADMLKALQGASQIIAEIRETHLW
UniProt P62897: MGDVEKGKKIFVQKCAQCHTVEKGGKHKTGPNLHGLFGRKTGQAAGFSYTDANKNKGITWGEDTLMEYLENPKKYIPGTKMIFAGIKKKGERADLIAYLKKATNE

Results are given in words; binding and its absence hold for the method and conditions named. For part of these data: In cells and extracts the contact can be indirect. Some binding calls cover weakened binding; strength is not graded here.

In test [1] the target is T1, Fis1 (mouse, endogenous) (mouse (endogenous in HdhQ111 cells)) (UniProt Q9CQ92).
T1 sequence: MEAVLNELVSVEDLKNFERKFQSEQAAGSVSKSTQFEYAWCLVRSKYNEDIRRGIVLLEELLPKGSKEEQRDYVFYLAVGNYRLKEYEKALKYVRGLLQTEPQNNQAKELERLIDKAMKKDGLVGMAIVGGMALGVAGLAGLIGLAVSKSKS
The experiment in a line: co-IP; HdhQ111 cells treated with TAT or DA1, cross-linked with 1% FA for 20 min at r.t. before lysis (Drp1-Fis1).

Test [2] deals with T2, Mff (mouse, endogenous) (mouse (endogenous in HdhQ111 cells)) (UniProt Q6PCP5).
T2 sequence: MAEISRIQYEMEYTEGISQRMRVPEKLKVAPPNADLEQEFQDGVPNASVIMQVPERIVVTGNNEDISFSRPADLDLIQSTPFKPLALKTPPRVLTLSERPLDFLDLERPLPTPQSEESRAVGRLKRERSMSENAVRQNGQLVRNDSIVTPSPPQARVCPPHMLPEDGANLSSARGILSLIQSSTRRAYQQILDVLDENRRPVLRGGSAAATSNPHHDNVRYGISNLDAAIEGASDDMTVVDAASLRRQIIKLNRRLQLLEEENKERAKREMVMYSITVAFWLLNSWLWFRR
The test can be described thus: co-IP; HdhQ111 cells treated with TAT or DA1, cross-linked with 1 mM DSP for 10 min at r.t. before lysis (Drp1-Mff, Drp1-MiD51).

The target of test [3] is MIEF1 (mouse, endogenous) (mouse (endogenous in HdhQ111 cells)) (UniProt Q8BGV8). The test is described as above.
Test [4] addresses Dynamin-related protein 1 (mouse, endogenous) (mouse (endogenous in HdhQ7 and HdhQ111 striatal cells and mouse striatum)) (UniProt Q8K1M6). The test can be described thus: non-reducing SDS-PAGE and western blot; endogenous protein in total lysates of cells or tissues, 8% SDS-PAGE in the presence or absence of β-mercaptoethanol, WB with anti-ATAD3A or anti-Drp1. (In general: In western blotting, separated proteins are transferred to a membrane and probed.)

Test [5] concerns the target T3, ATAD3A (mouse, endogenous) (mouse (endogenous in HdhQ7, HdhQ111 and Neuro2a cells and mouse striatum)) (UniProt Q925I1).
T3 sequence: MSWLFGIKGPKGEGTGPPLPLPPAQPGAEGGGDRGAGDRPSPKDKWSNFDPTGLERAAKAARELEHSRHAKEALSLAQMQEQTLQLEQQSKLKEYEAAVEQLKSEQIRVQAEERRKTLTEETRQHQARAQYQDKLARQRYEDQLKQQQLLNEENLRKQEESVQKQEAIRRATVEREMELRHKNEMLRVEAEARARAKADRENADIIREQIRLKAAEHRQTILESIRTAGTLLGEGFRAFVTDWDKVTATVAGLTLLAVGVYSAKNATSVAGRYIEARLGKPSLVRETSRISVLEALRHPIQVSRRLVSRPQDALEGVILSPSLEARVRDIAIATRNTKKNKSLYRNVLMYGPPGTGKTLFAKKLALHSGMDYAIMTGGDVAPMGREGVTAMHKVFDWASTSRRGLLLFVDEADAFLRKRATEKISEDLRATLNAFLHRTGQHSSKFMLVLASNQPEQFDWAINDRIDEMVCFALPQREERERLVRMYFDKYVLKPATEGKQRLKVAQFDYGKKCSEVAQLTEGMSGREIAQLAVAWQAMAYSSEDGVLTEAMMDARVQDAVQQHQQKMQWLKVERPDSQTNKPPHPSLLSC
The experiment in a line: co-IP; endogenous proteins, total lysates (1% Triton X-100, 150 mM NaCl) of HdhQ7 and HdhQ111 cells, of wildtype striatal cells exposed to 3-NP (5 mM, 4 h) and of striatal extracts of YAC128, R6/2 and wildtype mice.

Test [6] deals with T3, ATAD3A (mouse, endogenous) (mouse (endogenous in HdhQ7, HdhQ111 and Neuro2a cells and mouse striatum)). The test can be described thus: proximity ligation; in situ Duolink PLA on fixed HdhQ7 and HdhQ111 cells, rabbit anti-ATAD3A with mouse anti-Mitofilin or mouse anti-Cytochrome C.

As to “Dynamin-related protein 1 (mouse, endogenous) (from UniProt Q8K1M6 1-736)”, the binding entry in test [1], in test [2], in test [3], in test [4] and in test [5] was “binds” throughout.
“Cytochrome c (mouse, endogenous) (from UniProt P62897 1-105)”: the binding result in test [6] is recorded as “no binding”.
